The supplement of paper PMC3334620
Whole data set: some 33,000 sequences, median “E-score (-0.5 to 0.5)” near -0.015, cut for the highest 2% near 0.3. Some of the results follow.

target: T1, Abf1 (UniProt P14164); experiment: PBM E-score (8-mer binding enrichment) (E-score (-0.5 to 0.5)); higher = stronger / more preferred TF binding; conditions: protein concentration: 200 nM; construct: GST-full length
T1 sequence: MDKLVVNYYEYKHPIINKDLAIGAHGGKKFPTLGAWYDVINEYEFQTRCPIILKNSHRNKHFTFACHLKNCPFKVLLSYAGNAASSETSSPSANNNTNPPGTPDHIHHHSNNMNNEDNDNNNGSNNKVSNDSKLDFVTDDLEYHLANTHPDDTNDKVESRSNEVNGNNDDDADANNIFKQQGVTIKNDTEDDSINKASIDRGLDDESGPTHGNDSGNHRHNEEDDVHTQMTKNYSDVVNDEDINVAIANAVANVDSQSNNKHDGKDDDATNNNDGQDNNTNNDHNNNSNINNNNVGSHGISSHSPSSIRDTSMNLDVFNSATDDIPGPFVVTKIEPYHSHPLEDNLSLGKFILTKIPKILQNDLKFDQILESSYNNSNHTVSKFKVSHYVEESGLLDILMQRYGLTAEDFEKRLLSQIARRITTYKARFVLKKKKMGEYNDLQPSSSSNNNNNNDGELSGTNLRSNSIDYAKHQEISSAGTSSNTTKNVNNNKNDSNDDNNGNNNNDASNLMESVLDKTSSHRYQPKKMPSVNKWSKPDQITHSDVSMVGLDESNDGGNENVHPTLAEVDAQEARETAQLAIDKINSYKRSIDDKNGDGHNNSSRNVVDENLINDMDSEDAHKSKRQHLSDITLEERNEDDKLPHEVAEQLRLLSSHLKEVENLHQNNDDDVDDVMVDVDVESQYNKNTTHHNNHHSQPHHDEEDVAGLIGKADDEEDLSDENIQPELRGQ
Method: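 Universal 'all 10-mer' protein binding microarrays (Agilent AMADID 015681) probed with GST-tagged S. cerevisiae TFs (full-length or DBD) made by in vitro transcription/translation (PURExpress), about 100-200 nM. Bound TF was detected with fluorescent anti-GST. Each ungapped 8-mer (which stands for itself and its reverse complement) is scored by the PBM enrichment score (E-score), a modified Wilcoxon-Mann-Whitney statistic from -0.5 to +0.5, computed with the Universal PBM Analysis Suite. Scale: above 0.35 generally sequence-specific binding.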

Going from ACTACACA to CAGATGGA, the “PBM E-score” value falls from 0.0566 to 0.00822.

First: CGCGATAA
Second: GCACTATA
The “PBM E-score” value of the first is higher: 0.275 for the first, 0.017 for the second.

Compared with AACGACCC, ATGTCTGC is lower in “PBM E-score” value: 0.0599 for the first, -0.0313 for the second.

Compared with TCGCGTCA, CCCGGAGC is lower in “PBM E-score” value: 0.033 for the first, -0.202 for the second.

Going from GTCCATTA to GCACACCA, the “PBM E-score” value falls from 0.144 to -0.138.

Compared with ATTCTTCC, CCCACTCC is lower in “PBM E-score” value: -0.152 for the first, -0.263 for the second.

Going from AAGCCACA to CATCTCCG, the “PBM E-score” value rises from -0.0117 to 0.00984.

Compared with CCGCCATA, ATCGGGCA is higher in “PBM E-score” value: -0.072 for the first, 0.126 for the second.

Compared with ACATTCAT, AGCCAGGA is lower in “PBM E-score” value: 0.109 for the first, -0.0571 for the second.

Compared with CGGTGGTC, TCAAACCA is higher in “PBM E-score” value: -0.0612 for the first, 0.136 for the second.

Compared with ACCAGCAG, CACTCTAC is higher in “PBM E-score” value: -0.125 for the first, 0.178 for the second.

Compared with GCGGAGCC, GTATTAGA is higher in “PBM E-score” value: -0.0789 for the first, 0.206 for the second.

Going from TGCAACAA to GGCTCACC, the “PBM E-score” value falls from 0.0357 to -0.197.

Compared with CATGCTAG, ATACCACC is higher in “PBM E-score” value: -0.00334 for the first, 0.0401 for the second.

Going from CATATGTC to ATAAGATG, the “PBM E-score” value rises from 0.0792 to 0.201.

First: GCTCAAAA
Second: ACTTGGGA
The “PBM E-score” value of the first is higher: -0.0054 for the first, -0.141 for the second.

First: AATTCAAG
Second: CTTGCTCC
The “PBM E-score” value of the first is lower: -0.0702 for the first, -0.00563 for the second.

First: GTCGACTA
Second: GGTTCTAC
The “PBM E-score” value of the first is higher: 0.0964 for the first, -0.00083 for the second.

Compared with CTCTATCC, GGCATGCC is lower in “PBM E-score” value: -0.0626 for the first, -0.0767 for the second.

Going from TTATTAAA to CTCATGCA, the “PBM E-score” value falls from 0.116 to 0.0123.

First: CATGCTGC
Second: CTGATAGA
The “PBM E-score” value of the first is lower: -0.117 for the first, 0.0446 for the second.

Going from AAAGACCT to AGATTCGA, the “PBM E-score” value rises from -0.0826 to -0.0332.

Compared with GATTGATA, ATTTTCTC is higher in “PBM E-score” value: 0.00544 for the first, 0.0904 for the second.

First: AGTAGCCA
Second: CTCAAGTC
The “PBM E-score” value of the first is lower: -0.0787 for the first, 0.0472 for the second.

Compared with AACGGGGC, CCCTTATA is lower in “PBM E-score” value: -0.0372 for the first, -0.0912 for the second.

Going from AAGGAAAG to CGTAGTCC, the “PBM E-score” value rises from -0.135 to -0.0426.

Going from AAGGTGCA to AATATGGT, the “PBM E-score” value rises from -0.0988 to 0.121.

Compared with ATAGGACC, AAACGCCA is higher in “PBM E-score” value: -0.195 for the first, -0.0437 for the second.

Compared with CTTGTGAA, AACGTCAA is higher in “PBM E-score” value: 0.0464 for the first, 0.173 for the second.

Compared with GATGGGCA, GGTTCCTA is lower in “PBM E-score” value: -0.0389 for the first, -0.115 for the second.

First: ACAAGAGG
Second: ACAGTCCA
The “PBM E-score” value of the first is lower: -0.239 for the first, -0.116 for the second.

First: TAATGCTA
Second: CAAGTCAA
The “PBM E-score” value of the first is higher: 0.125 for the first, -0.0911 for the second.

Going from GTGGCTCA to AGCTTGAG, the “PBM E-score” value rises from -0.195 to -0.1.

Compared with CCGCGGCA, CAACCATG is lower in “PBM E-score” value: -0.0823 for the first, -0.122 for the second.

Going from AAAGCACC to ATCTGTGA, the “PBM E-score” value rises from 0.0912 to 0.154.

Going from CGTATGAG to CGCTTCCC, the “PBM E-score” value falls from 0.189 to -0.1.

First: TAGTAGCA
Second: AAAATCTG
The “PBM E-score” value of the first is lower: 0.0359 for the first, 0.1 for the second.

Going from ATCTCCAG to CCTCTCCC, the “PBM E-score” value falls from 0.0729 to -0.261.

First: ATCGATGA
Second: CGTAAGGA
The “PBM E-score” value of the first is higher: 0.255 for the first, 0.107 for the second.

Going from AGAGTTCG to GTGACGTA, the “PBM E-score” value rises from 0.134 to 0.296.

Compared with AGTTCCAG, CCTCAGAA is higher in “PBM E-score” value: -0.159 for the first, -0.0676 for the second.

First: CACTGATA
Second: CAGGCCTA
The “PBM E-score” value of the first is lower: -0.056 for the first, -0.0367 for the second.

Going from AGTGCCGC to ACCTACGA, the “PBM E-score” value rises from -0.161 to 0.145.

First: CCAGTCGC
Second: CCCCAACA
The “PBM E-score” value of the first is higher: -0.12 for the first, -0.245 for the second.

Compared with GCACAAAC, CCTGAAGG is lower in “PBM E-score” value: -0.167 for the first, -0.266 for the second.

First: CGCCCCGA
Second: AGGTTAAG
The “PBM E-score” value of the first is lower: -0.169 for the first, -0.128 for the second.

Compared with GATGGGAA, CAGACGCA is lower in “PBM E-score” value: -0.127 for the first, -0.202 for the second.

Going from CATCGATC to AGATGAAA, the “PBM E-score” value falls from 0.0492 to -0.0632.

Compared with CTAGCGAA, CGGTAACG is higher in “PBM E-score” value: -0.197 for the first, -0.04 for the second.

Compared with GGCGAGCC, CGGCCTAA is higher in “PBM E-score” value: -0.23 for the first, -0.0583 for the second.

Going from CAGGTAAA to GGTTGACA, the “PBM E-score” value rises from -0.0916 to -0.0254.

Going from ACATAACT to CACACCGA, the “PBM E-score” value rises from 0.0117 to 0.0376.

First: ATCGAAGC
Second: ACAGGGAT
The “PBM E-score” value of the first is higher: -0.0766 for the first, -0.188 for the second.

Compared with GCTGAGCC, AGAAAATG is higher in “PBM E-score” value: -0.115 for the first, 0.217 for the second.

First: AGCTTCAG
Second: AAGAAAGG
The “PBM E-score” value of the first is lower: -0.242 for the first, 0.0224 for the second.

First: CATGCGAG
Second: CAGGGACC
The “PBM E-score” value of the first is higher: -0.0409 for the first, -0.252 for the second.

First: CGTCGTTC
Second: ACCAACCA
The “PBM E-score” value of the first is higher: 0.313 for the first, -0.0377 for the second.

Compared with CTTCCGTC, CATGAGAA is higher in “PBM E-score” value: 0.00848 for the first, 0.167 for the second.

Going from CCTGGGTA to AGCCCCAT, the “PBM E-score” value rises from -0.291 to -0.228.

Compared with CCATGGGA, CCATTCAC is higher in “PBM E-score” value: -0.292 for the first, -0.0768 for the second.

Compared with AAAACCCT, CCGGGGCA is lower in “PBM E-score” value: 0.00394 for the first, -0.165 for the second.

First: CTTGCTAA
Second: ACTCGGCG
The “PBM E-score” value of the first is higher: -0.0609 for the first, -0.0974 for the second.

Going from CCCATTAC to GGGCCGAC, the “PBM E-score” value rises from -0.103 to 0.0732.

First: CCATCTAG
Second: CGTTTACA
The “PBM E-score” value of the first is lower: -0.0382 for the first, 0.102 for the second.

Compared with GATACTGA, GCTGCTAC is lower in “PBM E-score” value: 0.15 for the first, -0.0937 for the second.

Compared with CCACCAAA, AGTGAAGG is higher in “PBM E-score” value: -0.22 for the first, -0.145 for the second.

Compared with ACCAAGAT, ACCGTATG is higher in “PBM E-score” value: -0.106 for the first, 0.27 for the second.

First: AATGTGGA
Second: CATTCAGG
The “PBM E-score” value of the first is higher: 0.144 for the first, -0.227 for the second.

Compared with CATAGGGC, GACGGGTA is higher in “PBM E-score” value: -0.307 for the first, 0.00211 for the second.

First: ACAGGCAA
Second: GCCAAAGA
The “PBM E-score” value of the first is lower: 0.0828 for the first, 0.0968 for the second.

Going from GTGAAGCA to ATTGCCAA, the “PBM E-score” value falls from 0.0833 to 0.00135.

First: AGAGCGGC
Second: ATATGATC
The “PBM E-score” value of the first is lower: -0.0944 for the first, 0.0976 for the second.

Going from GAATGCGC to CGGTGTGA, the “PBM E-score” value falls from 0.0991 to -0.00412.

Going from CCTGGGGA to ATGACTAA, the “PBM E-score” value rises from -0.246 to 0.146.

Going from CAAGAGCG to ACCGATGC, the “PBM E-score” value rises from -0.204 to -0.104.

Compared with GTAGACAC, GCGGGCAC is higher in “PBM E-score” value: -0.126 for the first, -0.0439 for the second.

Going from CAGGGGCC to ACTCGAGA, the “PBM E-score” value rises from -0.169 to -0.0317.

First: GCCCTTAC
Second: ACCACCAG
The “PBM E-score” value of the first is lower: -0.274 for the first, -0.112 for the second.

Going from CTATAAGA to TCGAAACA, the “PBM E-score” value rises from 0.0466 to 0.202.

Compared with CTTCCAGC, TCCGTCGA is higher in “PBM E-score” value: -0.224 for the first, 0.213 for the second.

First: GTCATCGA
Second: CTCCTCAG
The “PBM E-score” value of the first is higher: 0.232 for the first, -0.29 for the second.

Compared with CGGAGGTA, ATGCTTTA is lower in “PBM E-score” value: -0.0628 for the first, -0.0839 for the second.

First: TCCTGCGA
Second: GGCGCGCA
The “PBM E-score” value of the first is higher: 0.0815 for the first, -0.106 for the second.

Going from CTTGTAAC to AGGTTACG, the “PBM E-score” value falls from 0.161 to -0.0223.

First: CTCGAGTA
Second: AGCTTTTC
The “PBM E-score” value of the first is higher: 0.0248 for the first, -0.112 for the second.

Going from AGAGGTCG to TACGAGGA, the “PBM E-score” value rises from 0.0547 to 0.209.
